Data source: PubChem BioAssay AID1259308 (NCATS, 2017)

Aim: 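Knock-downs that increase output of a recombinant reporter protein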 (primary screen)
Cell system: human HEK293 embryonic kidney cells stably expressing firefly luciferase (HEK-CMV-Luc2-Hygro)
Reagent: single siRNA against human genes, 0.8 pmol siRNA per well
Time to read-out: 72 h
Measured: 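Reporter luminescence and viable-cell signal on separate replicate plates, given as percent of non-targeting control and median/MAD z-scores, plus per-cell luciferase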
Reading the numbers: total luciferase, z-score: higher = more reporter protein produced
Call rule: 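Active when the median/MAD z-score for overall luciferase is greater than 3; a gene was taken forward for validation with new siRNAs if at least two of its three siRNAs passed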
Calls: active = raised luciferase; inactive = no rise
In all, the deposit lists about 59,000 reagents; shown is a random part of them. In the full data, about 1,510 (2.6%) were called active. 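Calls use total luciferase alone and ignore viability, so some active siRNAs may act by altering cell number.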 A number with no mark means an inactive call. Reagents against one gene are numbered here. Further read-outs or replicates are left out here.

ZNF682 #1 showed total luciferase, z-score 4.07 (active).
For ZNF682 #2 the deposit lists total luciferase, z-score 1.74.
ZNF682 #3 gave total luciferase, z-score 0.182.
Against TAF4 #1 the deposit lists total luciferase, z-score 0.619.
With knock-down of TAF4 #2, the screen gave total luciferase, z-score -0.572.
For TAF4 #3, the entry reads total luciferase, z-score 3.43 (active).
Silencing of JAK3 #1 gave: total luciferase, z-score -0.478.
Depletion of JAK3 #2 came out at: total luciferase, z-score -0.457.
Silencing of JAK3 #3 gave: total luciferase, z-score 1.15.
SLC35G2 #1 showed total luciferase, z-score 0.0729.
Depletion of SLC35G2 #2 resulted in: total luciferase, z-score -0.851.
After knock-down of SLC35G2 #3, the record shows total luciferase, z-score 0.0463.

Hits, among the entries above:
ZNF682 #1 → total luciferase, z-score = 4.07 (active)
TAF4 #3 → total luciferase, z-score = 3.43 (active)

The results go on:
With knock-down of U2AF2 #1, the screen gave total luciferase, z-score 4.36 (active).
After knock-down of U2AF2 #2 the results were total luciferase, z-score 2.18.
For U2AF2 #3, the values are total luciferase, z-score 3.61 (active).
Knock-down of SLC7A6OS #1 resulted in: total luciferase, z-score -1.62.
Against SLC7A6OS #2, the entry reads total luciferase, z-score -1.04.
Depletion of SLC7A6OS #3 came out at: total luciferase, z-score -0.893.
Depletion of LCE2A #1 resulted in: total luciferase, z-score -0.844.
LCE2A #2 showed total luciferase, z-score 0.902.
After knock-down of LCE2A #3, the record shows total luciferase, z-score 4.27 (active).
Knock-down of CELF6 #1 resulted in: total luciferase, z-score -0.681.
After knock-down of CELF6 #2, the record shows total luciferase, z-score 0.466.
CELF6 #3 showed total luciferase, z-score -0.112.
Silencing of NEURL1 #1 gave: total luciferase, z-score -0.173.
NEURL1 #2 gave total luciferase, z-score 0.412.
NEURL1 #3 gave total luciferase, z-score -1.32.
JUNB #1 showed total luciferase, z-score -0.285.
Knock-down of JUNB #2 gave: total luciferase, z-score -0.314.
Knock-down of JUNB #3 came out at: total luciferase, z-score 1.17.
After knock-down of JAKMIP2 #1 the results were total luciferase, z-score 2.91.
After knock-down of JAKMIP2 #2, the record shows total luciferase, z-score 0.652.
After knock-down of JAKMIP2 #3, the screen gave total luciferase, z-score 1.6.
